Results are given in words; binding and its absence hold for the method and conditions named.
What was measured:
[1] = biological target: carrier domain of citrin (human) (UniProt Q9UJS0); experiment: SEC-MALLS; carrier domain in lauryl maltose neopentyl glycol; protein partially aggregated; both purified
[2] = biological target: carrier domain of citrin (human) (UniProt Q9UJS0); experiment: SEC-MALLS; Superose 6 10/300 GL; 20 mM Hepes pH 8.0, 150 mM NaCl, 2.5 mM DTT, 0.03% (w/v) DDM, 0.03 mg/ml TOCL; protein-conjugate (three-detector) method; both purified

B1: carrier domain of citrin (domain or fragment, UniProt Q9UJS0 320-612)
chain: PVLLQVAESAYRFGLGSVAGAVGATAVYPIDLVKTRMQNQRSTGSFVGELMYKNSFDCFKKVLRYEGFFGLYRGLLPQLLGVAPEKAIKLTVNDFVRDKFMHKDGSVPLAAEILAGGCAGGSQVIFTNPLEIVKIRLQVAGEITTGPRVSALSVVRDLGFFGIYKGAKACFLRDIPFSAIYFPCYAHVKASFANEDGQVSPGSLLLAGAIAGMPAASLVTPADVIKTRLQVAARAGQTTYSGVIDCFRKILREEGPKALWKGAGARVFRSSPQFGVTLLTYELLQRWFYIDFG
binding [1]: no binding | binding [2]: no binding
